Among the data in article doi:10.1101/2025.07.28.667104 are binding values, retold here.

By UniProt entry, the sequences of proteins in these tests, tags left out.
UniProt P29590, whole entry: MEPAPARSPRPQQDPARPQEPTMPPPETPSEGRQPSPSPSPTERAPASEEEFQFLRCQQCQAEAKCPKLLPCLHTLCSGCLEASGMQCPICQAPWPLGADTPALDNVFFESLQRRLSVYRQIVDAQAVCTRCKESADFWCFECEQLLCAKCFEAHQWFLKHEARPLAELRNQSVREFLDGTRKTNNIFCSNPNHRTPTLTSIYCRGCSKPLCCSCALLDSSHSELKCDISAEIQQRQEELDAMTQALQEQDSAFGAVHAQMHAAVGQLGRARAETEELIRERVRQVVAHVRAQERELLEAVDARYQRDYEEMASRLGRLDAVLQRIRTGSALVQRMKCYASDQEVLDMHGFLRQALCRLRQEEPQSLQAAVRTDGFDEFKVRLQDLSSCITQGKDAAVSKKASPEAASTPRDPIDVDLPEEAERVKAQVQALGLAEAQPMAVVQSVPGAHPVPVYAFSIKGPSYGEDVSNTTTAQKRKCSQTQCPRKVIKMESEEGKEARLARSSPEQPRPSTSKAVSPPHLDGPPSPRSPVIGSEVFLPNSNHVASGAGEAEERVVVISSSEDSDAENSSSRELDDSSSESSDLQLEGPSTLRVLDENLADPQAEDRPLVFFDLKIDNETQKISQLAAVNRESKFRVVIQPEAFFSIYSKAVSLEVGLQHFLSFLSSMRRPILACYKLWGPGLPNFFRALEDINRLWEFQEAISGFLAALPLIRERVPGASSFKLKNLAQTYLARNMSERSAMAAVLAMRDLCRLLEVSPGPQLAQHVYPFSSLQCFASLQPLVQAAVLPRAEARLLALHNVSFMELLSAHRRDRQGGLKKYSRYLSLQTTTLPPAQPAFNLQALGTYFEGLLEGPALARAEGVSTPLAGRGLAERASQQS

Results are given in words; binding and its absence hold for the method and conditions named. Binding seen in cells or lysates may run through a third protein. Here binding means that the protein was enriched with, or labelled near, the bait; the list need not be complete.

For the experiment, the target named is PML I-TurboID NTD (UniProt P29590). The experiment in a line: proximity labelling.

As for ATRX (from UniProt P46100 1-2492), the binding result is listed as “binds”. In the case of DAXX (from UniProt Q9UER7 1-740) it was “binds”.
